Results reported in PubChem BioAssay AID248 (DTP/NCI, 2004).
The list does not hold the whole screen: it covers a few groups of compounds. Not every dose and run of a compound is shown. T/C: endpoint of the treated group in % of that of the vehicle group. Some doses have a count of surviving animals in place of a T/C: the source files T/C as zero there, which appears to mark a toxic dose or a test without result, not a measured value. Some survivor counts are full or nearly so, which does not show that the dose was tolerated: survival well below the control is almost never listed, so the zero probably covers shortened survival too. Survivors were counted at the toxicity check, usually on the fifth day, unless a day is given; later deaths do not show. Schedules are NCI's codes, read here as Q, the interval in days (D) or hours (H), X, the number of doses. Some schedule codes hold Z or #, which are not explained here. Where survival is the endpoint, the PubChem record calls one and a half times the control and up active, and a quarter to a half above the control has no call in these data; cut-offs in other NCI protocols can differ. Some T/C values carry the count of animals alive at the toxicity check (mostly the fifth day); where neither a count nor a note follows, no animal had died by that day. Some entries were tested several times; the values are given in rising order. Some entries show no survivor count and are marked so; the dose need not have been tolerated.

System: L1210 leukemia ip in BDF1 mice, survival T/C
Experiment: NCI In Vivo Anticancer Drug Screen. Data for tumor model L1210 Leukemia (intraperitoneal) in B6D2F1 (BDF1) mice
Details: T/C endpoint: mean survival time, higher T/C = longer survival
[1] = dose: 100.0 mg/kg/injection, schedule: Q01DX001 (ip), vehicle: saline
[2] = dose: 100.0 mg/kg/injection, schedule: Q04DX003 (ip), vehicle: saline
[3] = dose: 200.0 mg/kg/injection, schedule: Q01DX001 (ip), vehicle: saline
[4] = dose: 200.0 mg/kg/injection, schedule: Q04DX003 (ip), vehicle: saline
[5] = dose: 400.0 mg/kg/injection, schedule: Q01DX001 (ip), vehicle: saline
[6] = dose: 75.0 mg/kg/injection, schedule: Q01DX001 (ip), vehicle: other
[7] = dose: 50.0 mg/kg/injection, schedule: Q01DX009 (ip), vehicle: saline
[8] = dose: 100.0 mg/kg/injection, schedule: Q01DX009 (ip), vehicle: saline
[9] = dose: 35.0 mg/kg/injection, schedule: Q01DX Z (ip), vehicle: carboxymethylcellulose (CMC)
[10] = dose: 50.0 mg/kg/injection, schedule: Q01DX009 (ip), vehicle: Klucel (hydroxypropylcellulose) (HPC)
[11] = dose: 50.0 mg/kg/injection, schedule: Q04DX003 (ip), vehicle: Klucel (hydroxypropylcellulose) (HPC)
[12] = dose: 100.0 mg/kg/injection, schedule: Q04DX003 (ip), vehicle: Klucel (hydroxypropylcellulose) (HPC)
[13] = dose: 200.0 mg/kg/injection, schedule: Q04DX003 (ip), vehicle: Klucel (hydroxypropylcellulose) (HPC)
[14] = dose: 400.0 mg/kg/injection, schedule: Q04DX003 (ip), vehicle: Klucel (hydroxypropylcellulose) (HPC)

For `CCCCCCC(C)(C)COP1OCC(C)(C)CO1`, the T/C [1] was 86 % of control, the T/C [2] was 99 % of control and the T/C [3] was 102 % of control. The T/C [4] was 102 % of control, the T/C [5] was 90 % of control and the T/C (dose: 400.0 mg/kg/injection, schedule: Q04DX003 (ip), vehicle: saline) was 99 % of control.

With `CCC12COP(OC1)OC2` the T/C [6] was 96 % of control.

With `c1ccc2c(c1)CC1(C2)C[N+]12CCCCC2` the T/C (dose: 25.0 mg/kg/injection, schedule: Q01DX009 (ip), vehicle: saline) was 100 % of control [5 of 6 alive], the T/C [7] was 107 % of control and the T/C [1] was 87 % of control. The survivor count [8] was 0 of 6, the survivor count [3] was 1 of 6 and the survivor count [5] was 0 of 6.

For `O=C(O)COc1ccc(N(CCCl)CCCl)cc1`, the T/C (dose: 1.0 mg/kg/injection, schedule: Q01DX Z (ip), vehicle: carboxymethylcellulose (CMC)) was 104 % of control, the T/C (dose: 1.5 mg/kg/injection, schedule: Q01DX Z (ip), vehicle: carboxymethylcellulose (CMC)) was 104 % of control and the T/C (dose: 1.5 mg/kg/injection, schedule: Q01DX Z (ip), vehicle: methylcellulose (MC)) was 116 % of control. For the same compound, the T/C (dose: 2.3 mg/kg/injection, schedule: Q01DX Z (ip), vehicle: carboxymethylcellulose (CMC)) was 115 % of control, the T/C (dose: 2.3 mg/kg/injection, schedule: Q01DX Z (ip), vehicle: methylcellulose (MC)) was 130 % of control and the T/C (dose: 3.5 mg/kg/injection, schedule: Q01DX Z (ip), vehicle: carboxymethylcellulose (CMC)) was 146 and 150 % of control [5 of 6 alive]. For the same compound, the T/C (dose: 3.5 mg/kg/injection, schedule: Q01DX Z (ip), vehicle: methylcellulose (MC)) was 102, 127, 186 % of control, the T/C (dose: 5.0 mg/kg/injection, schedule: Q01DX Z (ip), vehicle: methylcellulose (MC)) was 111, 134, 156 % of control and the T/C (dose: 5.3 mg/kg/injection, schedule: Q01DX Z (ip), vehicle: carboxymethylcellulose (CMC)) was 114 % of control. For the same compound, the T/C (dose: 8.0 mg/kg/injection, schedule: Q01DX Z (ip), vehicle: carboxymethylcellulose (CMC)) was 123 % of control, the T/C (dose: 8.0 mg/kg/injection, schedule: Q01DX Z (ip), vehicle: methylcellulose (MC)) was 114 and 174 % of control and the T/C (dose: 12.0 mg/kg/injection, schedule: Q01DX Z (ip), vehicle: carboxymethylcellulose (CMC)) was 138 and 145 % of control. The T/C (dose: 12.0 mg/kg/injection, schedule: Q01DX Z (ip), vehicle: methylcellulose (MC)) was 97 and 126 % of control, the T/C (dose: 18.0 mg/kg/injection, schedule: Q01DX Z (ip), vehicle: carboxymethylcellulose (CMC)) was 161 % of control and the T/C (dose: 27.0 mg/kg/injection, schedule: Q01DX Z (ip), vehicle: carboxymethylcellulose (CMC)) was 101 % of control. The T/C [9] was 91 % of control, the survivor count [9] was 4 of 6 and the survivor count (dose: 53.0 mg/kg/injection, schedule: Q01DX Z (ip), vehicle: carboxymethylcellulose (CMC)) was 0 of 6. For the same compound, the survivor count (dose: 80.0 mg/kg/injection, schedule: Q01DX Z (ip), vehicle: carboxymethylcellulose (CMC)) was 0 of 6, the T/C [1] was 105 % of control and the survivor count (dose: 120.0 mg/kg/injection, schedule: Q01DX Z (ip), vehicle: carboxymethylcellulose (CMC)) was 0 of 6. For the same compound, the T/C [3] was 101 % of control and the T/C [5] was 100 % of control.

In the case of `ClCCNc1nc2ccccc2c2ccccc12`, the T/C (dose: 10.0 mg/kg/injection, schedule: Q04DX003 (ip), vehicle: Klucel (hydroxypropylcellulose) (HPC)) is reported as 109 % of control, the T/C (dose: 18.7 mg/kg/injection, schedule: Q01DX009 (ip), vehicle: carboxymethylcellulose (CMC)) is reported as 104 % of control and the T/C (dose: 20.0 mg/kg/injection, schedule: Q04DX003 (ip), vehicle: Klucel (hydroxypropylcellulose) (HPC)) is reported as 106 % of control. For the same compound, the T/C (dose: 37.5 mg/kg/injection, schedule: Q01DX009 (ip), vehicle: carboxymethylcellulose (CMC)) was 107 % of control, the T/C (dose: 40.0 mg/kg/injection, schedule: Q04DX003 (ip), vehicle: Klucel (hydroxypropylcellulose) (HPC)) was 105 % of control and the T/C [10] was 113 % of control. The survivor count [11] was 6 of 6, the T/C (dose: 75.0 mg/kg/injection, schedule: Q01DX001 (ip), vehicle: carboxymethylcellulose (CMC)) was 106 % of control and the survivor count (dose: 75.0 mg/kg/injection, schedule: Q01DX009 (ip), vehicle: Klucel (hydroxypropylcellulose) (HPC)) was 4 of 6. The T/C (dose: 75.0 mg/kg/injection, schedule: Q01DX009 (ip), vehicle: carboxymethylcellulose (CMC)) was 126 % of control [5 of 6 alive], the survivor count [12] was 5 of 6 and the survivor count (dose: 112.5 mg/kg/injection, schedule: Q01DX009 (ip), vehicle: Klucel (hydroxypropylcellulose) (HPC)) was 0 of 6. The survivor count (dose: 150.0 mg/kg/injection, schedule: Q01DX001 (ip), vehicle: carboxymethylcellulose (CMC)) was 0 of 6, the survivor count [13] was 0 of 6 and the survivor count (dose: 300.0 mg/kg/injection, schedule: Q01DX001 (ip), vehicle: carboxymethylcellulose (CMC)) was 0 of 6. For the same compound, the survivor count [14] was 0 of 6.

`CCOC(=O)C(CCSC)NC(=O)N(CCCl)CCCl` (stereo not given) was tested, and the T/C (dose: 62.5 mg/kg/injection, schedule: Q01DX Z (ip), vehicle: water) was 105 % of control, the T/C (dose: 125.0 mg/kg/injection, schedule: Q01DX Z (ip), vehicle: water) was 111 % of control [5 of 6 alive] and the T/C (dose: 250.0 mg/kg/injection, schedule: Q01DX Z (ip), vehicle: water) was 113 % of control.

`CP(=O)(Oc1ccc([N+](=O)[O-])cc1)Oc1ccc([N+](=O)[O-])cc1` was tested, and the T/C (dose: 25.0 mg/kg/injection, schedule: Q01DX009 (ip), vehicle: Klucel (hydroxypropylcellulose) (HPC)) was 96 % of control [survivor count not shown], the T/C [10] was 102 % of control [survivor count not shown] and the T/C [11] was 103 % of control [survivor count not shown]. For the same compound, the T/C [12] was 92 [survivor count not shown] and 96 % of control [survivor count not shown] and the T/C [13] was 95 [survivor count not shown] and 100 % of control [survivor count not shown].

With `NN=C(N)N.O=[N+]([O-])/N=c1\nc[nH][nH]1` the T/C (dose: 100.0 mg/kg/injection, schedule: Q04DX002 (ip), vehicle: gum acacia) was 111 % of control [survivor count not shown], the T/C (dose: 200.0 mg/kg/injection, schedule: Q04DX002 (ip), vehicle: gum acacia) was 107 % of control [survivor count not shown] and the T/C (dose: 400.0 mg/kg/injection, schedule: Q04DX002 (ip), vehicle: gum acacia) was 111 % of control [survivor count not shown].

For `BrP(c1ccccc1)c1ccccc1`, the T/C [12] was 101 % of control, the T/C [13] was 97 % of control and the T/C [14] was 94 % of control.

For `C1COP(OCCOP2OCCO2)O1`, the T/C [7] was 98 % of control [5 of 6 alive], the T/C (dose: 50.0 mg/kg/injection, schedule: Q04DX003 (ip), vehicle: saline) was 100 % of control and the T/C [8] was 94 % of control. For the same compound, the T/C [2] was 100 % of control, the survivor count (dose: 200.0 mg/kg/injection, schedule: Q01DX009 (ip), vehicle: saline) was 3 of 6 and the T/C [4] was 94 % of control.

In the case of `CONC(=O)NP(=O)(Cl)Cl`, the T/C (dose: 50.0 mg/kg/injection, schedule: Q01DX001 (ip), vehicle: carboxymethylcellulose (CMC)) is reported as 98 % of control, the T/C (dose: 100.0 mg/kg/injection, schedule: Q01DX001 (ip), vehicle: carboxymethylcellulose (CMC)) is reported as 98 % of control and the T/C (dose: 200.0 mg/kg/injection, schedule: Q01DX001 (ip), vehicle: carboxymethylcellulose (CMC)) is reported as 93 % of control. For the same compound, the survivor count (dose: 400.0 mg/kg/injection, schedule: Q01DX001 (ip), vehicle: carboxymethylcellulose (CMC)) was 1 of 4.

With `CCN(CC)CCOC(=O)C(O)(c1ccccc1)c1ccc(C)cc1C` (stereo not given) the T/C [6] was 93 % of control.

`CC1COP(N(C)C)O1` (stereo not given) was tested, and the T/C [1] was 101 % of control, the T/C [3] was 97 % of control and the T/C [5] was 92 % of control.
